Data as given in PubChem BioAssay AID1053208 (Peter MacCallum Cancer Centre, 2014)
Test: 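Genes whose silencing cuts survival of bone tumour cells only with doxorubicin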 (primary screen). Cell system: mouse osteosarcoma cells, early-passage culture from an engineered mouse model of fibroblastic bone tumour. Reagent: siRNA pool against mouse genes, 40 nM. Timing: about 120 h (48 h before drug, then 72 h with drug). Treatment: doxorubicin 100 nM for 72 h, roughly 30-40% inhibitory dose. Read-out: 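Viability read as ATP luminescence after 72 h of 100 nM doxorubicin or none, duplicate wells averaged, scaled to non-targeting siRNA, then expressed as robust z-scores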. Reading the numbers: viability z-score with doxorubicin: higher = more viable cells under doxorubicin; viability z-score without drug: higher = more viable cells with knock-down alone. Hit rule: 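Called active if knock-down leaves viability unchanged without drug (z within -2 to 2) but lowers it with doxorubicin (z at or under -2)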.
In all, the deposit lists about 17,000 reagents; below is an unselected part. 788 of all reagents (4.7%) count as active. 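Calls rest on z-score classes alone; an extra cut-off of viability at most 70% of control was not applied to them.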 Further read-outs or replicates are left out here.

gene | combined z-score class | viability z-score with doxorubicin | viability z-score without drug | activity call
Olfml2b | no change with or without drug | -0.22 | -0.84 | inactive
Rcbtb2 | no change with or without drug | -1.12 | -0.67 | inactive
Gsdma2 | no change with or without drug | -0.45 | -1.18 | inactive
Aurkb | low cell count without drug only | -0.11 | -3.54 | inactive
Acot2 | no change with or without drug | 0 | 1.18 | inactive
Wdr4 | no change with or without drug | -1.24 | 1.18 | inactive
Odf2 | no change with or without drug | 0.22 | 0.84 | inactive
Stx1a | no change with or without drug | 0 | 0.67 | inactive
Nkx2-9 | no change with or without drug | 1.35 | 0.84 | inactive
Timm17a | no change with or without drug | 0.45 | 0.84 | inactive
Klf1 | no change with or without drug | 0.56 | 0.84 | inactive
Pcsk2 | low cell count with doxorubicin only | -2.02 | -0.17 | active
Fbxw9 | no change with or without drug | -0.67 | 0.17 | inactive
Trappc3 | no change with or without drug | 0.45 | 1.01 | inactive
4932425I24RIK | no change with or without drug | -0.45 | 0.34 | inactive
Pptc7 | no change with or without drug | -0.67 | -1.52 | inactive
Tbk1 | no change with or without drug | 0.56 | -0.84 | inactive
Plgrkt | no change with or without drug | 0.45 | 1.35 | inactive
Lenep | low cell count with doxorubicin only | -2.36 | -1.85 | active
Gsdma | no change with or without drug | -0.79 | -0.17 | inactive
Chuk | no change with or without drug | 0.67 | -0.84 | inactive
Med12 | no change with or without drug | 0.11 | 0 | inactive
Or8w1 | no change with or without drug | 1.12 | 0.51 | inactive
Or8g33 | no change with or without drug | -1.35 | -0.84 | inactive
Ahr | no change with or without drug | -0.79 | -0.51 | inactive
Rhobtb3 | no change with or without drug | 0.79 | 0.34 | inactive

Reformatted: results already given
Aurkb — combined z-score class = low cell count without drug only; viability z-score with doxorubicin = -0.11; viability z-score without drug = -3.54; activity call = inactive
Acot2 — combined z-score class = no change with or without drug; viability z-score with doxorubicin = 0; viability z-score without drug = 1.18; activity call = inactive

More reagents follow.
gene | combined z-score class | viability z-score with doxorubicin | viability z-score without drug | activity call
Il3 | high cell count without drug only | 1.69 | 2.19 | inactive
Ifnlr1 | no change with or without drug | -0.45 | -0.67 | inactive
Ldah | high cell count without drug only | 1.12 | 2.19 | inactive
Zftraf1 | no change with or without drug | 0.79 | -0.17 | inactive
Selenom | no change with or without drug | 0 | -0.51 | inactive
Krt33a | no change with or without drug | -0.9 | 0.84 | inactive
4833408A19Rik | no change with or without drug | 1.46 | -1.01 | inactive
Trp53bp2 | no change with or without drug | -0.79 | 1.52 | inactive
Nts | no change with or without drug | 0.67 | -0.34 | inactive
Ankle1 | no change with or without drug | 0.22 | 0.84 | inactive
Zfp160 | no change with or without drug | -0.22 | -0.17 | inactive
Bcorl1 | no change with or without drug | 1.12 | 0.17 | inactive
Mrm1 | high cell count without drug only | 0 | 2.02 | inactive
Azin2 | no change with or without drug | -1.69 | 0.34 | inactive
Hhex | no change with or without drug | -0.45 | -0.67 | inactive
Tox3 | no change with or without drug | 1.12 | 0.67 | inactive
Lsm3 | no change with or without drug | -0.34 | -1.35 | inactive
Nsun5 | no change with or without drug | -0.67 | 0.17 | inactive
Fetub | no change with or without drug | -0.56 | -0.17 | inactive
Cdc42ep1 | low cell count with doxorubicin only | -2.7 | -1.52 | active
Tmem218 | no change with or without drug | 1.69 | 1.69 | inactive
Uckl1 | no change with or without drug | 1.57 | 1.01 | inactive
Ptafr | high cell count with and without drug | 2.36 | 2.02 | inactive
Tti2 | no change with or without drug | 0.79 | -0.84 | inactive
